Measured data: PubChem BioAssay AID1259254 (NCATS, 2017)
In all, the deposit lists about 59,000 reagents; shown is a random part of them. Over the whole deposit, about 1,550 (2.6%) got an active call. 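G2 share is only a proxy for re-replication; each gene was hit by three separate siRNAs, and active genes were retested.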 Unmarked entries are inactive. The numbers tell different reagents against one gene apart. Further read-outs or replicates are left out here. Not stated in the record: the amount of reagent.

Purpose: 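Finding genes that stop cells copying their DNA twice in one cycle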 (primary screen)
Cell system: human HCT116 colorectal cancer cells
Reagent: single siRNA against human genes
Timing: 3 days
Measurement: 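Imaged Hoechst DNA stain sorts each cell into a cycle phase by DNA amount; per plate, G2 fraction set to 0% for non-targeting and 100% for GMNN siRNA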
Reading the numbers: G2 robust z-score and G2 cells, % of GMNN control: higher = more G2 cells, more excess DNA replication
Hit rule: 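An siRNA counts as active if its G2 robust z-score lies at least 5 MADs above the screen median; here such calls match roughly 38% of GMNN control or more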

no.	gene	siRNA no.	G2 robust z-score	G2 cells, % of GMNN control
1	ARHGAP23	1	-0.909	-3.43
2	ARHGAP23	2	-0.449	-0.193
3	ARHGAP23	3	0.94	9.58
4	BLOC1S4	1	-0.491	-0.488
5	BLOC1S4	2	2.12	17.9
6	BLOC1S4	3	-0.548	-0.888
7	NKX2-8	1	3.05	24.4
8	NKX2-8	2	-0.875	-3.19
9	NKX2-8	3	-0.677	-1.79
10	RSAD1	1	4.97	37.9
11	RSAD1	2	3.94	30.7
12	RSAD1	3	6.25 (active)	46.9
13	C2orf80	1	0.836	8.85
14	C2orf80	2	-0.262	1.12
15	C2orf80	3	-0.519	-0.682
16	ULBP1	1	-0.104	2.24
17	ULBP1	2	-0.693	-1.91
18	ULBP1	3	0.622	7.34
19	MCEE	1	-0.129	2.06
20	MCEE	2	0.603	7.21
21	MCEE	3	-0.564	-0.997
22	THRAP3P1	1	1.11	10.8
23	THRAP3P1	2	-0.683	-1.84
24	THRAP3P1	3	2.43	20.1
25	SAP130	1	0.935	9.55
26	SAP130	2	3.76	29.4
27	SAP130	3	8.38 (active)	62
28	NRXN2	1	0.888	9.21
29	NRXN2	2	-0.144	1.96
30	NRXN2	3	-0.27	1.07
31	PRKD3	1	-1.48	-7.45
32	PRKD3	2	-0.87	-3.16
33	PRKD3	3	-1.43	-7.08
34	DDX39B	1	0.0152	3.07
35	DDX39B	2	-0.922	-3.52
36	DDX39B	3	-0.964	-3.82
37	ZNF296	1	-1.2	-5.47
38	ZNF296	2	-0.676	-1.79
39	ZNF296	3	-0.861	-3.09
40	USP8P1	1	-0.403	0.132
41	USP8P1	2	0.662	7.63
42	USP8P1	3	1.25	11.7
43	SUPV3L1	1	-1.79	-9.65
44	SUPV3L1	2	-0.188	1.65
45	SUPV3L1	3	-0.714	-2.05
46	ZNF441	1	-0.413	0.0614
47	ZNF441	2	1.02	10.1
48	ZNF441	3	-0.0274	2.77

Entries listed so far whose target name starts with U or u:
gene	siRNA no.	G2 robust z-score	G2 cells, % of GMNN control
ULBP1	1	-0.104	2.24
ULBP1	2	-0.693	-1.91
ULBP1	3	0.622	7.34
USP8P1	1	-0.403	0.132
USP8P1	2	0.662	7.63
USP8P1	3	1.25	11.7
